Patent publication US20140346397A1
These are yes or no findings as the source states them, for the method shown. Some binding calls cover weakened binding; strength is not graded here.

The chains behind the UniProt entries cited, without tags or fusion partners. Where a name states a change or a piece, a line headed by the entry shows the natural chain unless it says otherwise.
UniProt P00742: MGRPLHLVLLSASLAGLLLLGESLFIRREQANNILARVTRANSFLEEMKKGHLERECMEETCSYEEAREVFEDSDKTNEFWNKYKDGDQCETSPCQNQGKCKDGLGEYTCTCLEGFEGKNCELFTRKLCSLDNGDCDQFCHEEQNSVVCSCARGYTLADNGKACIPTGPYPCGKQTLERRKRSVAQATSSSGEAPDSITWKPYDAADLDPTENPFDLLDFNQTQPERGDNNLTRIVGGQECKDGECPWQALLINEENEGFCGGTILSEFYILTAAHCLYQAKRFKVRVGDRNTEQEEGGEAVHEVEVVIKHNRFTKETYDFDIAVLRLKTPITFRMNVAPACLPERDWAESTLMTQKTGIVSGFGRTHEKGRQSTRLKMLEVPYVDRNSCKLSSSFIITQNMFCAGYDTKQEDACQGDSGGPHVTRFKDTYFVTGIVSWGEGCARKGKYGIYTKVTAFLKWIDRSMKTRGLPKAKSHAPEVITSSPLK

Legend:
[1] = target: r-Antidote (fXa derivative, cleaved two-chain polypeptide with the linker removed) (human) (UniProt P00742); experiment: affinity chromatography on immobilised STI, SDS-PAGE of the purified protein (FIG. 6)
[2] = target: r-Antidote (fXa derivative, cleaved two-chain polypeptide with the linker removed) (human) (UniProt P00742); experiment: affinity chromatography on immobilised STI, elution of the bound protein
[3] = target: r-Antidote (fXa derivative, cleaved two-chain polypeptide with the linker removed) (human) (UniProt P00742); experiment: affinity chromatography on immobilised STI, SDS-PAGE of the purified protein (FIG. 5)

Measured: binding

B1: Soyabean Trypsin Inhibitor (STI), on STI affinity resin (protein, UniProt P01070 25-205, looked up)
chain: DFVLDNEGNPLENGGTYYILSDITAFGGIRAAPTGNERCPLTVVQSRNELDKGIGTIISSPYRIRFIAEGHPLSLKFDSFAVIMLCVGIPTEWSVVEDLPEGPAVKIGENKDAMDGWFRLERVSDDEFNNYKLVFCPQQAEDDKCGDIGISIDHDDGTRRLVVSKNKPLVVQFQKLDKESL
binds: [1] | [2] | [3]
